Literature values in patent US8586307B2, “Methods for diagnosing epigenetic, transgenerational effects of environmental toxicants on mammalian germ-lines and treating associated diseases” (priority 2005, dated 2013).
Some of these results come from one statement about several compounds together. At least one structure is not confirmed: it was looked up by name or label, or the drawing left a doubt.

Target: T1, androgen receptor (Rattus norvegicus, UniProt P15207)
T1 sequence (P15207 1-902): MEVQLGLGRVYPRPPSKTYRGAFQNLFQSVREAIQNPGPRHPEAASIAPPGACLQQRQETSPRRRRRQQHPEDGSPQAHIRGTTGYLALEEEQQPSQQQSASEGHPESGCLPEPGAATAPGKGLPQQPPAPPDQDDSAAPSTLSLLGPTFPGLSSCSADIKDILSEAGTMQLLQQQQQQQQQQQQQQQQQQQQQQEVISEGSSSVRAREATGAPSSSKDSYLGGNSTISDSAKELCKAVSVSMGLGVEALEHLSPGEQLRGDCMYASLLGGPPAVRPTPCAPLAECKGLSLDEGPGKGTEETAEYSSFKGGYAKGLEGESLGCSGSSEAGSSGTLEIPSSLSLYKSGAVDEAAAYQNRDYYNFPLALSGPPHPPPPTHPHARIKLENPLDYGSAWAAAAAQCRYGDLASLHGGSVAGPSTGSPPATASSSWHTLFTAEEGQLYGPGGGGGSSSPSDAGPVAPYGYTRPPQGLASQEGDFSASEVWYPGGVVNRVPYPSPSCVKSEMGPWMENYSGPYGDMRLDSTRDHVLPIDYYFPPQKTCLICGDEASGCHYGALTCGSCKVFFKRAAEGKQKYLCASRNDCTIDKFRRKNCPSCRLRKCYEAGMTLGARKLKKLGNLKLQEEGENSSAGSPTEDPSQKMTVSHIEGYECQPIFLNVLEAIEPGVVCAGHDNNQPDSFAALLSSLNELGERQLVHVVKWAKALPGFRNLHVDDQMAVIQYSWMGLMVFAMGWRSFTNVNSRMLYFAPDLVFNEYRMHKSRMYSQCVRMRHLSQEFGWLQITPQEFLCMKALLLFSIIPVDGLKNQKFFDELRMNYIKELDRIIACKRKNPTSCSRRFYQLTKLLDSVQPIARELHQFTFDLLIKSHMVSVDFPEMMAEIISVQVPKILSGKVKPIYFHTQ
Conditions: cited from earlier work; for Ki: metabolites of vinclozolin, read-out: Ki, affinity for the androgen receptor; for affinity for the androgen receptor greater than the parent compound: relative to vinclozolin

Structure (SMILES) | Ki | affinity for the androgen receptor greater than the parent compound
C=CC(C)(OC(=O)Nc1cc(Cl)cc(Cl)c1)C(=O)O (stereo not shown) [M1] | 10 to 100 µM | 10-15 times
C=CC(C)(O)C(=O)Nc1cc(Cl)cc(Cl)c1 (stereo not shown) [M2] | 10 to 100 µM | 10-15 times
